# ± gives the standard deviation. This is a selection; strong and weak results do not stand in their true shares. Many of these values have a large error.
# System: MIWI (PIWIL1) piRISC loaded with piRNA #2 (30 nt)
# Experiment: pre-steady-state target cleavage rate (min^-1); MIWI and MILI are mouse PIWI proteins and EfPiwi is from a freshwater sponge; tags in brackets are library labels; higher = faster piRNA-guided slicing of the target
# Details: guide: piRNA #2 5'p-UUAGGUAACCCAGUAGAUCCAGAGGAAUUC; auxiliary factor: 500 nM mouse GTSF1
# Method in brief: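 Using HEPES–potassium acetate buffer at 33 °C, 1 nM active affinity-purified piRISC with a single synthetic guide was mixed with 0.1 nM transcribed, DNA-blocked target RNA library for 0–8 or 0–960 min, with or without 500 nM GTSF1 partner protein. Uncleaved targets were sequenced and normalised to depth and to weakly complementary targets, and three trials were pooled with k3 capped at 0.0001 min^-1. A burst-and-steady-state fit gave the pre-steady-state cleavage rate.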
row,Sequence,pre-steady-state target cleavage rate
1,CUUAAGGAGACCAAUCUACUGGGUUACCUAA,0.00318 ± 0.0049
2,GAAUUCCUCUGGAUCUACUGAGUUACCUAA,0.67 ± 0.046
3,CAAUUCCUCUGGUCUACUGGGUUACCUAA,0.369 ± 0.088
4,CUUAAGGAGACCUAGAUGUGGGUUAUCUAA,0.000379 ± 0.019
5,CUUUUCCUCUGGAUCUACUGGGUAUGGAUA [g8:g27:cont:t1A],0.00112 ± 0.012
6,CUUAAGGACUGGAUCUACUGGCUUACCUUA,0.00755 ± 0.014
7,CUUAAGGUCUGGAUGUACUCGGUUACCUAA,0.0154 ± 0.016
8,CUUAUCCUCUCCAUCUACUGGGUUACCUAA,0.422 ± 0.033
9,CUUAAGGAGACGAUCUACUGGGUUACACUAA,0.00084 ± 0.0082
10,CUUAAGGACUGGAUCUACUGGGGUUACCUAA,0.00127 ± 0.021
11,CUUAAGGAGAGGAUCUUCUGGGUUUCCUAA,0.000945 ± 0.011
12,CUUAAGGAGACCUAGUCACUGGGUUACCUAA,0.00112 ± 0.005
13,CUUAAGGAGACGAUCUACUGGGUCACCUAA,0.00314 ± 0.0036
14,CUUAAGGAGACGAUCGACUGGGUUACCUAA,0.000313 ± 0.034
15,CUUAAGGAGACGAUCAAGUGGGUUACCUAA,0.000239 ± 0.024
16,CUUAAGGAGACGAGCUACUGGGUUACCUAA,0.00114 ± 0.011
17,CUUAUCCUCUCGAUCUACUGGGUUACCUUA,0.436 ± 0.032
18,CUUAAGGAGACCUACUACUGGGUUACCUAG [g2:g16:cont:t1G],0.0012 ± 0.01
19,CUUAAGGAGACGAUCUACUGGCUUACGUAA,0.000714 ± 0.011
20,CAAUUCCUCUCGAUCUACUCGGUUACCUAA,0.22 ± 0.022
21,CUUAAGGAGACCUAGAUGACCGUUACCUAA,0.00112 ± 0.0045
22,CAAUACCUCUGGUUCUACUGGGUUACCUAA,0.909 ± 0.066
23,CUUAAGGAGUGGAUCAACUGGGUUUCCUAA,0.00206 ± 0.0046
24,CUUAAGGAGACCAUCUACUGGUGUUACCUAA,0.000892 ± 0.0069

# 16 entries from above, tab-delimited:
row	Sequence	pre-steady-state target cleavage rate
6	CUUAAGGACUGGAUCUACUGGCUUACCUUA	0.00755 ± 0.014
7	CUUAAGGUCUGGAUGUACUCGGUUACCUAA	0.0154 ± 0.016
8	CUUAUCCUCUCCAUCUACUGGGUUACCUAA	0.422 ± 0.033
9	CUUAAGGAGACGAUCUACUGGGUUACACUAA	0.00084 ± 0.0082
10	CUUAAGGACUGGAUCUACUGGGGUUACCUAA	0.00127 ± 0.021
11	CUUAAGGAGAGGAUCUUCUGGGUUUCCUAA	0.000945 ± 0.011
12	CUUAAGGAGACCUAGUCACUGGGUUACCUAA	0.00112 ± 0.005
13	CUUAAGGAGACGAUCUACUGGGUCACCUAA	0.00314 ± 0.0036
14	CUUAAGGAGACGAUCGACUGGGUUACCUAA	0.000313 ± 0.034
15	CUUAAGGAGACGAUCAAGUGGGUUACCUAA	0.000239 ± 0.024
16	CUUAAGGAGACGAGCUACUGGGUUACCUAA	0.00114 ± 0.011
17	CUUAUCCUCUCGAUCUACUGGGUUACCUUA	0.436 ± 0.032
18	CUUAAGGAGACCUACUACUGGGUUACCUAG [g2:g16:cont:t1G]	0.0012 ± 0.01
19	CUUAAGGAGACGAUCUACUGGCUUACGUAA	0.000714 ± 0.011
20	CAAUUCCUCUCGAUCUACUCGGUUACCUAA	0.22 ± 0.022
21	CUUAAGGAGACCUAGAUGACCGUUACCUAA	0.00112 ± 0.0045

# Carrying on:

row,Sequence,pre-steady-state target cleavage rate
1,CUUAACCUCUCGAUCUACUGGCUUACCUAA,0.173 ± 0.016
2,CUUAAGGAGAGGUUCUACAGGGUUACCUAA,0.00256 ± 0.0048
3,CUUAAGGAGAGGAUCUACUGGGUAACCUAA,0.00292 ± 0.0063
4,CUUAAGGAGACGAUCUUCUGGGUUACCAAA,0.00107 ± 0.0038
5,CUUAAGGAGAGGAUCUACUGGGAUACCUAA,0.00288 ± 0.005
6,CUUAAGGAGACCUACUACUGGGUUAGCAAA,0.000246 ± 0.029
7,CUUAAGGACUGGAUCUACUGGGUUAGGAAA,0.000577 ± 0.026
8,GAAUUCCUCUGGAACUACUGGGUUACCAAA,0.233 ± 0.056
9,CUUAAGGUCUGGAUCUACUCGGUUAGCUAA,0.00108 ± 0.014
10,CUUAAGGACUGGAUCUACUGGGAUAGCUAA,0.00465 ± 0.0075
11,CUUAAGGAGACCUAGAUGACGGUUACCAUA,0.000119 ± 0.033
12,CUUUUCCUCUGGUUCUACUGGGUUACCUAA,0.621 ± 0.042
13,CUUAAGGACUGGAUCUACUGGGUUAGCUUA,0.00627 ± 0.013
14,CUUAAGGAGACCUAGAACUGGGUUACCUA,0.000158 ± 0.027
15,CUUAAGGUCUGGAUCACUGGGUUACCUAA,0.00175 ± 0.0085
16,CUUAUCCUCUGGAUCUGACUGGGUUACCUAA,0.00062 ± 0.014
17,CUUAAGGAGAGGAACUACUGGGUUUCCUAA,0.000432 ± 0.012
18,CUUAAGGAGAGGAACUACUGGGUUACCUAA,0.00349 ± 0.0053
19,CUUAAGGAGUGGAUCUUCUGGGUUAGCUAA,0.00109 ± 0.015
20,CUUAAGGAGUGGAUCUACUGGGAUUACCUAA,0.00195 ± 0.0057
21,CUUAAGGAGUGGAACUACAGGGUUACCUAA,0.00168 ± 0.014
22,CUUAAGGAGACCUAGAACUGGGUUUCCUAA,0.000587 ± 0.011
23,CUUAAGGAGACGAUCUACUGGGUUAUCUAA,0.00245 ± 0.0027
24,CUAUUCCUCUGGAUCUACUGUGGUUACCUAA,0.0019 ± 0.0062

row,Sequence,pre-steady-state target cleavage rate
1,CUUAAGGAGACCAACUACUCGGUUACCUAA,0.000245 ± 0.014
2,CUUAAGGAGACCUUCUACUCGGGUUACCUAA,0.0012 ± 0.0054
3,CUUAAGGAGACCUAGUGCUGGGUUACCUAA,0.00112 ± 0.0076
4,CUUAACCUCUGGAUCUACUUGGUUACCUAA,0.00253 ± 0.0043
5,CUUAAGCUCUGGAUCUACUAGGGUUACCUAA,0.000549 ± 0.013
6,CUUAAGGAGACGAUCUACUUGGGUUACCUAA,0.00105 ± 0.0095
7,CUUAAGGAGUGGAUCAACUGGGUUACGUAA,0.053 ± 0.014
8,CUUAAGGAGAGGAUCUACUGGGAAACCUAA,0.000227 ± 0.029
9,CUAUUCCUCUCGAUCUACUGGGUUACCUUA,0.583 ± 0.056
10,CUUAAGGACUGGAUCUACUGGCGUUACCUAA,0.000346 ± 0.045
11,CUUAAGGACUGCAUCUACAGGGUUACCUAA,0.00634 ± 0.0076
12,CUUAAGGAGACGAUGUACUGGGUUACGUAA,0.000253 ± 0.024
13,GAAUUCCUCUGGUUCUACUGGGUUACCUAA,0.678 ± 0.042
14,CUUAAGGUCUGGAUCUACUUGGGUUACCUAA,0.000441 ± 0.018
15,CUUAAGGACUCCUUCUACUGGGUUACCUAA,0.0016 ± 0.0065
16,CUUAAGGAGACCUAGAUCUGAGGUUACCUAA,0.00106 ± 0.0088
17,CUUAAGGACUGGAACUACUGGGUAACCUAA,0.00731 ± 0.012
18,CUUAAGGAGACGAUCUACUGGGUAUACCUAA,0.00188 ± 0.0057
19,CUUAAGGACUGGAUCUACUGGGUUACCCAA,0.00749 ± 0.011
20,GAAUUCCUCUGGAUCUACUCGGUUACGUAA,0.155 ± 0.021
21,CUUAAGGAGACCUUCUACUGGGUUCCUAA,0.000306 ± 0.013
22,CUUAAGGAGACCAUCUACUGGGAUACGUAA,0.000871 ± 0.01
23,CUUAAGGACUGGUUCUACUGGGUAACCUAA,0.00666 ± 0.014

# Source: the supplement of paper PMC10338343
